Some of the results follow. The main result of the screen is listed elsewhere. These columns were measured beside it and carry no call. Compounds called inactive in the main read-out are mostly missing here. Words in brackets tell the shape of the fitted curve; partial curves, single points and poor fits give uncertain potencies.
Test: qHTS for identification of novel therapeutic agents for treatment of microphthalmiaassociated transcription factor (MiT) renal cell carcinoma (RCC) (AID 1963991)
Conditions: CellTiter-Glo, 48 h; for z-score: stronger effect = lower value
Summary of the method: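 Three TFE3-fusion RCC cell lines (UOK109, UOK124, UOK145), 500 cells/well, were exposed to the 1912-compound MIPE 4.0 library for 48 hours at 37 C. Viability was read by CellTiter-Glo luminescence, normalised to DMSO (100%) and empty wells (0%), with 11-concentration curve fits.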

[1] = TFE3-RCC UOK109 viability, measured here: UOK109 Z-AUC
[2] = TFE3-RCC viability, measured here: UOK124 Z-AUC
[3] = TFE3-RCC viability, measured here: UOK145 Z-AUC
[4] = TFE3-RCC viability, measured here: UOK145 cell viability
[5] = TFE3-RCC viability, measured here: UOK124 cell viability

Row | SMILES | z-score [1] | z-score [2] | z-score [3] | AC50 [4] | AC50 [5]
1 | O=c1ccn([C@@H]2O[C@H](CO)[C@H](O)[C@@H]2F)c(=O)[nH]1 | 0.194 | 0.675 | 0.48 | 26.4 µM [falling, partial curve] | –
2 | COc1ccc(C=Cc2cc(OC)c(OC)c(OC)c2)cc1O | -1.61 | -3.85 | -2.7 | – | –
3 | O=C(O)CCNc1cc(N2CCc3ccccc3CC2)nc(-c2ccccn2)n1 | 0.504 | 0.396 | 0.537 | – | –
4 | CN(C)CCC=C1c2ccccc2COc2ccc(CC(=O)O)cc21 | -0.25 | 0.129 | 0.197 | – | –
5 | CCOC(=O)[C@H](CCc1ccccc1)N[C@@H](C)C(=O)N1CCCC1C(=O)O (stereo partly specified) | 0.436 | 0.447 | 0.448 | – | –
6 | COC(=O)[C@@H]1[C@H]2C[C@@H]3c4[nH]c5ccccc5c4CCN3C[C@@H]2CC[C@@H]1O | 0.553 | 0.924 | -0.683 | – | –
7 | Cc1cnc(-c2cc(N3CCN(C(=O)CCS(C)(=O)=O)CC3)ncc2Cl)c(C)c1 | -0.497 | 0.525 | -0.296 | – | –
8 | O=C1Nc2ccc(Cl)cc2C(C#CC2CC2)(C(F)(F)F)O1 (stereo unspecified) | 0.136 | -0.684 | -0.132 | – | 26.4 µM [falling, single point]
9 | C=C[C@@H]1CN2CCC1C[C@@H]2C(O)c1ccnc2ccc(OC)cc12 (stereo partly specified) | 0.0737 | 0.784 | 0.454 | – | –
10 | CCc1cc(C(C)=NOCc2ccc(C3CCCCC3)c(C(F)(F)F)c2)ccc1CN1CC(C(=O)O)C1 | -0.588 | 0.405 | 0.869 | – | –
11 | Clc1ccc(CCC(Cn2ccnc2)Sc2c(Cl)cccc2Cl)cc1 (stereo unspecified) | 0.118 | 0.0548 | 0.0333 | – | 33.2 µM [falling, single point]
12 | N#Cc1ccc(Oc2ccc3c(c2)COB3O)cc1 | 0.343 | 0.696 | 0.613 | – | 23.5 µM [falling, partial curve, poor fit]
13 | O=C(NCc1ccccc1)[C@H](Cc1ccccc1)NC(=O)[C@@H]1O[C@@H]1C(=O)NCCc1ccc(O)cc1 | -5.53 | 0.676 | -3.85 | – | 18.7 µM [falling, partial curve]
14 | C[N+](C)(C)CC(=O)O | 0.317 | 0.31 | 1.61 | 37.2 µM [falling, partial curve, poor fit] | –
15 | O=C(NOC[C@H](O)CO)c1ccc(F)c(F)c1Nc1ccc(I)cc1F | -1.33 | -1.21 | 0.462 | 23.5 µM [falling, partial curve] | –
16 | C=C1[C@H](n2cnc3c(=O)[nH]c(N)nc32)C[C@H](O)[C@H]1CO | 0.94 | 2.29 | 0.945 | 23.5 µM [falling, partial curve] | –
17 | Cn1cc(-c2ccc3nnc(Sc4ccc5ncccc5c4)n3n2)cn1 | 0.251 | 1.3 | 0.608 | 29.6 µM [falling, single point] | –
18 | Cc1cc(C=c2sc3nc4ccccc4n3c2=O)c(C)n1-c1ccccc1 | 0.425 | 1.09 | 0.542 | – | 0.00209 µM [rising, full curve, poor fit]
19 | Cc1cc2c(F)c(Oc3ncnn4cc(OC[C@@H](C)O)c(C)c34)ccc2[nH]1 | 0.408 | 0.26 | 0.317 | 13.2 µM [falling, partial curve] | –
20 | Cc1csc(NC(=O)c2sc3nc4c(c(C(F)(F)F)c3c2N)CCC4)n1 | 0.233 | 0.388 | 0.133 | – | 18.7 µM [falling, partial curve]
21 | COc1c(C)c2c(c(O)c1CC=C(C)CCC(=O)O)C(=O)OC2 | 0.314 | 0.211 | 0.0217 | 0.935 µM [falling, full curve] | –
22 | CNC[C@H](O)c1cccc(O)c1 | 0.447 | 0.656 | 2.59 | 0.00187 µM [rising, full curve, poor fit] | –
23 | Nc1ncn([C@H]2C[C@H](O)[C@@H](CO)O2)c(=O)n1 | -0.0254 | 1.35 | 0.192 | 5.9 µM [falling, partial curve] | –
24 | O=C1CCCC2=C1C(c1[nH]ncc1Cl)N=C(Nc1nc3ccccc3o1)N2 (stereo unspecified) | 0.814 | 0.902 | 0.692 | – | 18.7 µM [falling, partial curve, poor fit]
25 | O=C(O)[C@H]1O[C@H](Oc2cc3oc(-c4ccccc4)cc(=O)c3c(O)c2O)[C@H](O)[C@@H](O)[C@H]1O | 0.634 | 0.939 | 0.883 | – | 0.0166 µM [rising, full curve]
26 | N[C@@]1(C(=O)O)CS(=O)(=O)[C@H]2[C@H](C(=O)O)[C@H]21 | 0.364 | 0.367 | 0.257 | 37.2 µM [falling, partial curve, poor fit] | –

Just z-score [1], for some of the entries so far:
Row	SMILES	z-score [1]
7	Cc1cnc(-c2cc(N3CCN(C(=O)CCS(C)(=O)=O)CC3)ncc2Cl)c(C)c1	-0.497
8	O=C1Nc2ccc(Cl)cc2C(C#CC2CC2)(C(F)(F)F)O1 (stereo unspecified)	0.136

From PubChem BioAssay (NCATS)
